# Assay results taken from the supplement of paper PMC8728848.
# The list shows a part of the results.
# B1: CD34 (Homo sapiens), P28906 (protein)
# chain: MGSSHHHHHHSSGLVPRGSHMSTSLATSPTKPYTSSSPILSDIKAEIKCSGIREVKLTQGICLEQNKTSSCAEFKKDRGEGLARVLCGEEQADADAGAQVCSLLLAQSEVRPQCLLLVLANRTEISSKLQLMKKHQSDLKKLGILDFTEQDVASHQSYSQKT
# Tests used:
# Test in all cases: glycan array binding signal (z-score within array); higher = stronger binding
# Conditions in all cases: glycan notation: IUPAC condensed, linker removed
# [1] = target: Neu5Gc(a2-8)Neu5Gc(a2-3)Gal(b1-4)GlcNAc(b1-3)Gal(b1-4)GlcNAc
# How it was run: (§1)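 Negative Z-scores can be read as non-binding. The Z-score is calculated within each array and then averaged across arrays of one protein sequence at different concentrations or buffers and across linkers. Arrays, 3228 in all, were curated from the Consortium for Functional Glycomics database and kept only where the protein sequence was available.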
# [2] = target: Neu5Gc(a2-8)Neu5Gc(a2-6)Gal(b1-4)GlcNAc
# How it was run: as §1
# [3] = target: Neu5Gc(b2-6)Gal(b1-4)GlcNAc
# How it was run: as §1
binder,measurement,setting,value
B1,glycan array binding signal (z-score),[1],-0.523
same,glycan array binding signal (z-score),[2],-0.041
same,glycan array binding signal (z-score),[3],-0.479
